In assay [1] the target is SPEN_(RRM 1–4) (human). Put plainly: SEC; gel filtration as last purification step, HiLoad 16/600 Superdex 200 pg, 50 mM HEPES (pH 7.5), 300 mM NaCl, 5 mM β-mercaptoethanol, 0.1% Triton-X; both purified.
For assay [2], the target named is SPEN_(RRM 2–4) (human). The assay is described as above.

No constants are given. Whether binding was seen depends on the method and setting.

B1: SPEN_(RRM 1–4) (domain or fragment)
chain: MVRETRHLWVGNLPENVREEKIIEHFKRYGRVESVKILPKRGSEGGVAAFVDFVDIKSAQKAHNSVNKMGDRDLRTDYNEPGTIPSAARGLDDTVSIASRSREVSGFRGGGGGPAYGPPPSLHAREGRYERRLDGSDSSSSSSDDSPARSVQSAAVPAPTSQLLSSLEKDEPRKSFGIKVQNLPVRSTDTSLKDGLFHEFKKFGKVTSVQIHGTSEERYGLVFFRQQEDQEKALTASKGKLFFGMQIEVTAWIGPETESENEFRPLDERIDEFHPKATRTLFIGNLEKTTTYHDLRNIFQRFGEIVDIDIKKVNGVPQYAFLQYCDIASVCKAIKKMDGEYLGNNRLKLGFGKSMPTNCVWLDGLSSNVSDQYLTRHFCRYGPVVKVVFDRLKGMALVLYNEIEYAQAAVKETKGRKIGGNKIKVDFANRESQLAFYHCMEKSGQDIRDFYEMLAERREER
Regarding B1, in assay [1], the binding result is recorded as “no binding”.

B2: SPEN_(RRM 2–4) (domain or fragment)
chain: FGIKVQNLPVRSTDTSLKDGLFHEFKKFGKVTSVQIHGTSEERYGLVFFRQQEDQEKALTASKGKLFFGMQIEVTAWIGPETESENEFRPLDERIDEFHPKATRTLFIGNLEKTTTYHDLRNIFQRFGEIVDIDIKKVNGVPQYAFLQYCDIASVCKAIKKMDGEYLGNNRLKLGFGKSMPTNCVWLDGLSSNVSDQYLTRHFCRYGPVVKVVFDRLKGMALVLYNEIEYAQAAVKETKGRKIGGNKIKVDFANRESQLAFYHCMEKSGQDIRDFYEMLAERREER
Take B2: in assay [2], the binding entry was “no binding”.
